# In PubChem BioAssay AID1487 (National Center for Advancing Translational Sciences (NCATS), 2009):
# Some of the results follow. These are further read-outs of the screen, such as a control signal, another cell line or another target. No call is given for them. The list favours compounds with an active or inconclusive main result. Potencies come from curve fits of mixed quality, noted in brackets.
# Experiment: qHTS Assay for Modulators of Lamin A Splicing
# Settings: HeLa LMNA splicing GFP/RFP minigene ratio, 48 h
# How it was run: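 S3 HeLa cells stably expressing lamin A-EGFP splicing minigene plus DsRed2, 600 cells/well, 48 h compound exposure at 37C. Laser-scanning cytometry; analysed as GFP (500-530 nm)/RFP (575-640 nm) total intensity ratio; 0.5% DMSO vehicle.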
# [1] = measured here: GFP splicing reporter channel
# [2] = measured here: RFP viability control channel
SMILES,AC50 [1],AC50 [2]
Cc1ccc2nc(/C(C#N)=C\c3ccc(OC(=O)c4cccs4)cc3)[nH]c2c1,"35.5 µM [falling, single point]","35.5 µM [falling, single point]"
O=C(Nc1n[nH]c(C(F)(F)F)n1)C1CC1,–,"0.0282 µM [rising, full curve]"
CCOc1cc(/C=N/N=C2/NC(=O)C(CC(=O)O)S2)ccc1OS(=O)(=O)c1ccc(C)cc1 (configuration not stated),–,"0.0562 µM [falling, full curve]"
O=C(NCCc1ccccc1)c1cnn2c(C(F)F)cc(C3CC3)nc12,"14.1 µM [rising, single point]","22.4 µM [rising, single point]"
CCn1c(CNC(=O)COc2ccc(C(C)C)cc2)nnc1SCC(=O)NC1CCCCC1C (configuration not stated),–,"0.01 µM [rising, full curve, poor fit]"
COc1ccc(/C=N/Nc2cc(C)nc(-n3nc(C)cc3C)n2)cc1,"31.6 µM [rising, single point]","31.6 µM [rising, single point]"
Cc1ccc(S(=O)(=O)Nc2ccc3ncccc3c2)cc1,"1.26 µM [rising, full curve]","2.24 µM [rising, full curve]"
CCC(C)n1c(SCC(=O)/C(C#N)=C(\C)N)nc2ccccc2c1=O (configuration not stated),"1.26 µM [rising, full curve]","0.501 µM [rising, full curve]"
Cc1ccc(-c2nc(CCNC(=O)c3ccc(C)c(C)c3)cs2)cc1,"0.447 µM [falling, full curve, poor fit]","0.316 µM [falling, full curve]"
CN1CCN(c2ncc3nc(-c4cn(C)c5ccccc45)c(=O)n(CCc4ccccc4)c3n2)CC1,"25.1 µM [falling, single point]","35.5 µM [falling, single point]"
COC(=O)[C@@]1(Cc2ccc(F)cc2)[C@H]2c3cc(C(=O)N(C)C)n(Cc4nc5ccccc5[nH]4)c3C[C@H]2CN1C(=O)c1ccccc1,"15.8 µM [rising, single point]","35.5 µM [rising, single point]"
O=C(/C=C/c1cccc(OCc2ccccc2)c1)c1cccnc1,–,"35.5 µM [falling, single point]"
Cc1cccc2c1c1ccc3c(c1n2C)C(=O)C=CC3=O,–,"35.5 µM [falling, single point]"
CCc1ccc(NC(=O)c2noc(C(C)C)c2[N+](=O)[O-])cc1,–,"14.1 µM [falling, single point]"

# Full records from above. Order of values: AC50 [1] | AC50 [2]
# CCc1ccc(NC(=O)c2noc(C(C)C)c2[N+](=O)[O-])cc1 in the list: – | 14.1 µM [falling, single point]
# CN1CCN(c2ncc3nc(-c4cn(C)c5ccccc45)c(=O)n(CCc4ccccc4)c3n2)CC1 in the list: 25.1 µM [falling, single point] | 35.5 µM [falling, single point]
